Data from paper PMC8961908.
Like-named read-outs stand apart in the source and are kept apart here. These are yes or no findings as the source states them, for the method shown. In cells and extracts the contact can be indirect. Some binding calls cover weakened binding; strength is not graded here. For some assays here: Where a sequence is shown, tags or fusion partners need not be part of it.

By UniProt entry, the sequences of proteins in these tests, tags left out.
UniProt O95197: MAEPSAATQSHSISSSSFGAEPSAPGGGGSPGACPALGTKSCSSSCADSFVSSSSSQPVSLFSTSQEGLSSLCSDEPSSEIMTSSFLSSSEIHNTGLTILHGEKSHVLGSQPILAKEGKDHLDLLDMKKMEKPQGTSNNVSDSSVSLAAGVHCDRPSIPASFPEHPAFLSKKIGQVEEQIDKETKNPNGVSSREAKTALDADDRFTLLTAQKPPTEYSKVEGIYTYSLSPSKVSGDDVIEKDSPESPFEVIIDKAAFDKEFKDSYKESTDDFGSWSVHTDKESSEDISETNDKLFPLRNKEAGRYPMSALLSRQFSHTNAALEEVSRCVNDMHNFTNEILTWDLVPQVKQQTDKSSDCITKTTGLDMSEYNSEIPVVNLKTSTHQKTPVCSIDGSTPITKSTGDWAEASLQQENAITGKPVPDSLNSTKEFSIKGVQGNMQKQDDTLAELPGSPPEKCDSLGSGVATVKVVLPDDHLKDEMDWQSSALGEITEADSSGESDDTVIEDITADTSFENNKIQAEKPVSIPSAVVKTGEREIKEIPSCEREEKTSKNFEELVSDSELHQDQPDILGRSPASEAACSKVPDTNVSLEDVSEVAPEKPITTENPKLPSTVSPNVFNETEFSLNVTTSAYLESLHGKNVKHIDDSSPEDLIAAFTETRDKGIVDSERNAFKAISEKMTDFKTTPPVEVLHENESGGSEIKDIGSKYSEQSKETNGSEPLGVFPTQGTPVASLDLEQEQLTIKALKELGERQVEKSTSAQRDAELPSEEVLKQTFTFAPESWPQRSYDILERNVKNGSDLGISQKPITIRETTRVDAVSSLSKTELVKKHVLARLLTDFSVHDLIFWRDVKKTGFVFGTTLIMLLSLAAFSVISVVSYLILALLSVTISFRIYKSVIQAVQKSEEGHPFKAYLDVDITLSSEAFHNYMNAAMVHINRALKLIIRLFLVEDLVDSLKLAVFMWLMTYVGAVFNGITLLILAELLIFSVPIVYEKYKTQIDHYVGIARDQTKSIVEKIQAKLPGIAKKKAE

Legend:
[1] = target: ADP-ribosylation factor-like 6 interacting protein 1 (ARL6IP1), endogenously C-terminally tagged (human (endogenous in U-2 OS)) (UniProt Q15041); assay: co-IP; FLAG M2 affinity beads on lysate of U-2 OS cells with endogenously tagged ARL6IP1-FLAG; western blot of endogenous partners or of transfected EGFP-ORP8 or EGFP
[2] = target: ADP-ribosylation factor-like 6 interacting protein 1 (ARL6IP1), endogenously C-terminally tagged (human (endogenous in U-2 OS)) (UniProt Q15041); assay: as above; remark: listed apart in the source

| binding [1] | binding [2] | Molecule |
| --- | --- | --- |
| binds |  | reticulon 3 (RTN3) (from UniProt O95197 1-1032) |
|  | binds | EGFP-ORP8 (protein, UniProt Q9BZF1 1-889) MEGGLADGEPDRTSLLGDSKDVLGPSTVVANSDESQLLTPGKMSQRQGKEAYPTPTKDLHQPSLSPASPHSQGFERGKEDISQNKDESSLSMSKSKSESKLYNGSEKDSSTSSKLTKKESLKVQKKNYREEKKRATKELLSTITDPSVIVMADWLKIRGTLKSWTKLWCVLKPGVLLIYKTQKNGQWVGTVLLNACEIIERPSKKDGFCFKLFHPLEQSIWAVKGPKGEAVGSITQPLPSSYLIIRATSESDGRCWMDALELALKCSSLLKRTMIREGKEHDLSVSSDSTHVTFYGLLRANNLHSGDNFQLNDSEIERQHFKDQDMYSDKSDKENDQEHDESDNEVMGKSEESDTDTSERQDDSYIEPEPVEPLKETTYTEQSHEELGEAGEASQTETVSEENKSLIWTLLKQVRPGMDLSKVVLPTFILEPRSFLDKLSDYYYHADFLSEAALEENPYFRLKKVVKWYLSGFYKKPKGLKKPYNPILGETFRCLWIHPRTNSKTFYIAEQVSHHPPISAFYVSNRKDGFCLSGSILAKSKFYGNSLSAILEGEARLTFLNRGEDYVMTMPYAHCKGILYGTMTLELGGTVNITCQKTGYSAILEFKLKPFLGSSDCVNQISGKLKLGKEVLATLEGHWDSEVFITDKKTDNSEVFWNPTPDIKQWRLIRHTVKFEEQGDFESEKLWQRVTRAINAKDQTEATQEKYVLEEAQRQAARDRKTKNEEWSCKLFELDPLTGEWHYKFADTRPWDPLNDMIQFEKDGVIQTKVKHRTPMVSVPKMKHKPTRQQKKVAKGYSSPEPDIQDSSGSEAQSVKPSTRRKKGIELGDIQSSIESIKQTQEEIKRNIMALRNHLVSSTPATDYFLQQKDYFIIFLLILLQVIINFMFK |
